{"source": "paper PMC13483313", "biological_target": "vaccinia virus J5 protein, wild type (WT J5) (vaccinia virus (Western Reserve strain)) (UniProt P07618)", "experiment": "co-IP", "note": "These are yes or no findings as the source states them, for the method shown. In cells and extracts the contact can be indirect. Some entries that bind do so weakly or less than the wild type.", "data": [{"substance": "vaccinia virus L5 protein (from UniProt P68623 1-128)", "values": [{"measurement": "binding", "result": "binds"}]}]}
